# Results from PubChem BioAssay AID504467 (National Center for Advancing Translational Sciences (NCATS), 2011).
# The campaign covered roughly 330,000 compounds. About 7,700 (2.3%) were called active. Inconclusive results, whose numbers are uncertain, are shown with a selection of clear calls. Calls come from the whole dose curve; as a rule, active = well fitted inhibition curve with a large enough effect; inconclusive = small, poorly fitted or top-dose-only effect, or effect the other way; inactive = flat fitted curve, though single readings scatter. A potency beside an inconclusive call is a rough fit, not a confirmed value.
# Assay: qHTS screen for small molecules that inhibit ELG1-dependent DNA repair in human embryonic kidney (HEK293T) cells expressing luciferase-tagged ELG1; note: nearly all actives have a fitted effect of over 55% in size
# Settings: HEK293T ELG1-luciferase reporter, luminescence, 16 h, DNA damage induced by 5-fluorouridine; activity change, negative = inhibition: at 46.1 µM (top of the series)
# Method in brief: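 In this reporter screen, reduction of luminescence relative to DMSO vehicle indicated activity. Compounds and 5-fluorouridine were added together to 2,000 cells per well, incubated for 16 hr at 37 °C, then developed with ONE-Glo.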
# % is set by controls: 0 for no effect and ±100 for the full control effect; potency is the fitted concentration of half-maximal effect.
SMILES,Potency,"activity change, negative = inhibition"
O=C(Cc1cc(C(=O)O)c2ccccc2n1)Nc1ccccc1,"inconclusive: 29.1 µM [inhibitor, single point]",–
O=C1CCc2cc(S(=O)(=O)Nc3ccccc3)ccc2N1,"inconclusive: 32.6 µM [activator, partial curve, poor fit]",–
CCOC(=O)c1ccc(N=c2sc(C(=O)OC)cc(=O)n2Cc2ccc3c(c2)OCO3)cc1,–,inactive: 7.95%
O=C(NCCCc1ccccc1)c1cncc(Br)c1,"inconclusive: 29.1 µM [activator, single point]",–
Cc1cc(C)nc(NC(=O)/C=C/c2ccc(Cl)cc2)n1,"inconclusive: 20.6 µM [activator, single point]",–
CC[C@]1(C(=O)OC)[C@H]2C(=O)N(C)C(=O)[C@H]2[C@H]2CN=C(SCc3ccc(C#N)cc3)N21,–,inactive: 25.1%
COc1ccc(S(=O)(=O)N(C)CC(=O)Nc2ccccc2SC)cc1Cl,"inconclusive: 18.4 µM [inhibitor, single point]",–
CC(C)C(=O)NC(=S)Nc1ccc(S(=O)(=O)NC2CCCCC2)cc1,active: 11.6 µM,–
Cc1cc(-c2nc3cccnc3s2)ccc1NS(=O)(=O)c1cccs1,"inconclusive: 11.6 µM [activator, partial curve]",–
COC(=O)c1ccc(CSC2=NCCS2)cc1,"inconclusive: 20.6 µM [activator, partial curve]",–
CC(=O)Nc1ccc(CN2CCN(Cc3ccc(C)cc3)C(CCO)C2)cc1 (configuration not stated),–,inactive: 13.5%
O=C(Nc1nc2c(F)cc(F)cc2s1)c1ccccn1,"inconclusive: 5.17 µM [activator, partial curve]",–
Cc1ccc2nc3c(c(C(=O)OC4CCOC4=O)c2c1)CCCC3 (configuration not stated),–,inactive: -1.03%
COC(=O)[C@@]12CCCCN1[C@H](c1ccc(-c3ccccc3)cc1)[C@H]1C(=O)N(C)C(=O)[C@H]12,"inconclusive: 6.31 µM [inhibitor, single point]",–
CC(=O)c1ccc(OCc2cc(C(=O)N(C)Cc3ccccn3)no2)cc1,"inconclusive: 18.3 µM [activator, partial curve]",–
COc1ccccc1NS(=O)(=O)c1ccc(C(=O)NCCCN2CCCC2=O)cc1,–,inactive: 1.82%
Cc1ccc(C)c(NC(=O)CN(C)C(=O)c2ccccc2OCc2ccccc2Cl)c1,"inconclusive: 9.2 µM [inhibitor, single point]",–
COc1cnc(-c2ccccn2)nc1Sc1cccc(Cl)c1,"inconclusive: 3.16 µM [inhibitor, partial curve, poor fit]",–
O=C(C1=C[C@@H](c2ccc(C(F)(F)F)cc2)C[C@@H](OCCCCO)O1)N1CCN(Cc2ccc3c(c2)OCO3)CC1,"inconclusive: 8.2 µM [inhibitor, partial curve, poor fit]",–
N#C/C(=C(/O)COC(=O)CSc1ccc2ccccc2c1)c1nc2ccccc2[nH]1,"inconclusive: 29.1 µM [activator, single point]",–
CCOC(=O)C1CCN(Cc2ccc(O)c3ncccc23)CC1,"inconclusive: 20.6 µM [inhibitor, partial curve, poor fit]",–

SMILES,Potency,"activity change, negative = inhibition"
Cc1cccc(NC(=O)c2nc[nH]c2C(=O)NCCCCCNC(=O)OC(C)(C)C)c1,active: 20.6 µM,–
COc1ccc([N+](=O)[O-])cc1/C=N/NC(=O)CNC(=O)C(c1ccccc1)c1ccccc1,–,inactive: -22.2%
CCCCC1CCC(c2nc(-c3cccnc3)no2)CC1 (configuration not stated),"inconclusive: 0.206 µM [inhibitor, partial curve]",–
CN(C)c1ccc(C(=O)Nc2cccc(S(=O)(=O)NC3=NCCCCC3)c2)cc1,"inconclusive: 11.6 µM [activator, partial curve]",–
Cc1ccnc(NC(=O)c2ccc(C(=O)c3ccccc3)cc2)c1,"inconclusive: 0.73 µM [activator, partial curve, poor fit]",–
CC(NC(=O)c1ccc2c(=O)n3c(nc2c1)CCC3)c1ccc(S(N)(=O)=O)cc1 (configuration not stated),–,inactive: 9.97%
Cn1c(C(=O)Nc2ccccc2)cc2sccc21,"inconclusive: 13 µM [activator, partial curve]",–
O=C(O)c1sc2cccc(Cl)c2c1Cl,"inconclusive: 29.1 µM [inhibitor, single point]",–
CCCCCCCn1c(=N)n(CC(O)c2ccco2)c2ccccc21 (configuration not stated),"inconclusive: 13 µM [inhibitor, partial curve]",–
N#C/C(=C(O)\C=C\c1ccccc1)c1nc2ccccc2[nH]1,–,inactive: 12.3%
Cc1ccc(N(C(=O)CNC(=O)c2ccco2)C(C(=O)NCC2CCCO2)c2ccccc2)cc1C (configuration not stated),"inconclusive: 25.9 µM [inhibitor, single point]",–
COc1ccc(C(=O)c2cnc3ccccc3c2-c2ccccc2)cc1,"inconclusive: 12.6 µM [inhibitor, partial curve, poor fit]",–
O=C1CCCC/C1=C\Nc1ccc(Cl)cn1,"inconclusive: 5.8 µM [activator, full curve]",–
CCOc1ccc(C(=O)NNC2CC(=O)N(Cc3ccc(Cl)cc3)C2=O)cc1OC (configuration not stated),–,inactive: 7.37%
O=C(O)c1cccc(NC(=O)c2ccc(COc3ccc(Cl)cc3)cc2)c1,"inconclusive: 20.6 µM [activator, single point]",–
COc1ccc(C2=NNC(c3cccnc3)=Nc3ccc(OC)cc32)cc1,"inconclusive: 29.1 µM [inhibitor, single point]",–
CC(=O)Nc1ccc(NC(=O)C/C(C)=N/NC(=O)c2cccc3ccccc23)cc1,–,inactive: 7.72%
COc1cc(/C=N/NC(=O)c2cccnc2)ccc1OCC(=O)Nc1ccccc1Cl,"inconclusive: 25.9 µM [inhibitor, single point]",–
COC(=O)Nc1ccc(S(=O)(=O)N2CCCC(C(=O)N3CCC(C)CC3)C2)cc1 (configuration not stated),"inconclusive: 29.1 µM [inhibitor, single point]",–
CC(=O)N1CCCc2cc(S(=O)(=O)N3CCCC(C(=O)N4CCN(c5ccccc5)CC4)C3)ccc21 (configuration not stated),"inconclusive: 29.1 µM [inhibitor, single point]",–
Cc1cccc(C)c1-n1c(C)cc(/C=N\NC(=O)CC(=O)NC2CCCCC2)c1C,"inconclusive: 9.2 µM [activator, partial curve, poor fit]",–

# Among those listed so far, 2 have fluorine.
SMILES,Potency,"activity change, negative = inhibition"
O=C(Nc1nc2c(F)cc(F)cc2s1)c1ccccn1,"inconclusive: 5.17 µM [activator, partial curve]",–
O=C(C1=C[C@@H](c2ccc(C(F)(F)F)cc2)C[C@@H](OCCCCO)O1)N1CCN(Cc2ccc3c(c2)OCO3)CC1,"inconclusive: 8.2 µM [inhibitor, partial curve, poor fit]",–
